The supplement of paper PMC7666118
Some of the results follow.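 The calls were made as follows: active = dose-dependent thermal stabilisation significant by F-test of dose-response against flat model at 10% FDR; inactive = not significant.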

Chains of the proteins cited; added tags and fusions are not shown. Lines headed by an entry give the natural chain unless they say otherwise; changes in a name come on top.
UniProt Q9UJU2, whole entry: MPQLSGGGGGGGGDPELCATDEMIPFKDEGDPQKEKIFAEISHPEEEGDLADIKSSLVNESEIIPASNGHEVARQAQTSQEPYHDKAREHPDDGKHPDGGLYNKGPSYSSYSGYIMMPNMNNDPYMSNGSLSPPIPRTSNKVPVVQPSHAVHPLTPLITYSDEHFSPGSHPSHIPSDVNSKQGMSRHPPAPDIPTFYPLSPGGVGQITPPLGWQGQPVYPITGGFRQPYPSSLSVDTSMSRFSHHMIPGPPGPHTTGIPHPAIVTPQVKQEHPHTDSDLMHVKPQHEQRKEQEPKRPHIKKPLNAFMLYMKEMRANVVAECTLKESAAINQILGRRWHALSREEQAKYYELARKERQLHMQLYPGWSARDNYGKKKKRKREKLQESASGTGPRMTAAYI
UniProt Q8N4N3: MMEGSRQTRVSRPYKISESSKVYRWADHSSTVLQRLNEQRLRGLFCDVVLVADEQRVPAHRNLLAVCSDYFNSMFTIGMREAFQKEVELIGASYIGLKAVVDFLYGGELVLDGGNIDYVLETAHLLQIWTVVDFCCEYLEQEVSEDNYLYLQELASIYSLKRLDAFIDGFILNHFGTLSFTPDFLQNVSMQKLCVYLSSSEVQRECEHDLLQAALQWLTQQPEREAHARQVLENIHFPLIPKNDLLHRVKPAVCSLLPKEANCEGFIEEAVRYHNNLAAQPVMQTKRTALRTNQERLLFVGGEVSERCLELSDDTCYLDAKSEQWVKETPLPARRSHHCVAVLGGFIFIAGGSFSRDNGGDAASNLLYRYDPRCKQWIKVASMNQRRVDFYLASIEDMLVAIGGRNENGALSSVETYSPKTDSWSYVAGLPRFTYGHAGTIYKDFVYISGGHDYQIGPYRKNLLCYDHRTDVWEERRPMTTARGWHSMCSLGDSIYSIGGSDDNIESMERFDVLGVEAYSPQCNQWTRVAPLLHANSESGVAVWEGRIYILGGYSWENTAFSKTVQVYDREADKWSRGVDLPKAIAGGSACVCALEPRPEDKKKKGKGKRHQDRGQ
UniProt P14316: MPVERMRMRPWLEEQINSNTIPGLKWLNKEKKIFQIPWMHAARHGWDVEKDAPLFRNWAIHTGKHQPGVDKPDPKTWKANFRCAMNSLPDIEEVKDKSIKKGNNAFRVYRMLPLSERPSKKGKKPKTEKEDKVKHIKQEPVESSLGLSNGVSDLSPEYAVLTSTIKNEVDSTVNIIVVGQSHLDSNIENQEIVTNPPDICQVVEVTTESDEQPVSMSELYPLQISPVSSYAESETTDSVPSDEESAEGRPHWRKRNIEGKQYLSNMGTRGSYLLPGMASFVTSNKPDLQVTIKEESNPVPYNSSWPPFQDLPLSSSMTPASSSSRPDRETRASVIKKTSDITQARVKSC
UniProt Q9H910: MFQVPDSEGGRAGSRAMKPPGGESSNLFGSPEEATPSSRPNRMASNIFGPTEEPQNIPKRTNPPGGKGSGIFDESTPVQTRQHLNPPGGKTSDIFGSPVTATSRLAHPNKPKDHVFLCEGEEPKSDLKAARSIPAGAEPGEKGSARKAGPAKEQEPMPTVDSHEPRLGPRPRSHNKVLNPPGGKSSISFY
UniProt Q9NXR8, whole entry: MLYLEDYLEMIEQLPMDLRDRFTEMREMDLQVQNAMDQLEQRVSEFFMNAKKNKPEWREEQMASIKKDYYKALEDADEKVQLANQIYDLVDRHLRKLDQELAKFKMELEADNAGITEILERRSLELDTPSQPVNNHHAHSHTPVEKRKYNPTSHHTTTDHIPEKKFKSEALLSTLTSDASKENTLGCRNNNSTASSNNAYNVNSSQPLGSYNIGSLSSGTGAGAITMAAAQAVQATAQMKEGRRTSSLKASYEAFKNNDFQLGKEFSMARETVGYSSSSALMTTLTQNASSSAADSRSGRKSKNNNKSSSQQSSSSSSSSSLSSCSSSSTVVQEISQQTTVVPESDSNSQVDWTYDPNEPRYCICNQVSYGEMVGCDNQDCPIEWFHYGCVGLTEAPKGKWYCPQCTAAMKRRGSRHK
UniProt Q15046, whole entry, looked up: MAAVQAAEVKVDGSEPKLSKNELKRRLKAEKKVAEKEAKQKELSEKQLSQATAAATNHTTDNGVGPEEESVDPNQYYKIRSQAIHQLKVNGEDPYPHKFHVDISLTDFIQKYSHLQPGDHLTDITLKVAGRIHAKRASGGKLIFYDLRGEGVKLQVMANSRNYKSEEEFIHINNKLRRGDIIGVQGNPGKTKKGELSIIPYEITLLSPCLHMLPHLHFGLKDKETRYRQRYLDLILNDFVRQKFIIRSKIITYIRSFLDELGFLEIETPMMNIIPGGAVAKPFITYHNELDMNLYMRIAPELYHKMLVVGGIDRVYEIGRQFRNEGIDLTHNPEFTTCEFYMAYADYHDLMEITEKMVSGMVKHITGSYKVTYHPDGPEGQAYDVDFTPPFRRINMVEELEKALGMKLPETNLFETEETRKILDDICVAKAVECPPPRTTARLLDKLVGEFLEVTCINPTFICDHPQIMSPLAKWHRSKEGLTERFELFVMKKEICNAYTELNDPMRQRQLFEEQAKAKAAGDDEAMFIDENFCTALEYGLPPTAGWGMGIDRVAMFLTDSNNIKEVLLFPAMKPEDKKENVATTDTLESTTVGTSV
UniProt P61968: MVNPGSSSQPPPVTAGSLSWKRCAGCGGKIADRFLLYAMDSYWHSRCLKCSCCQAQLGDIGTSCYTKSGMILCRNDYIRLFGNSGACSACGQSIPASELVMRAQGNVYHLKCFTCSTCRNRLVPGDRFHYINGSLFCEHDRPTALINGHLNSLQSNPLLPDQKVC
UniProt O94829: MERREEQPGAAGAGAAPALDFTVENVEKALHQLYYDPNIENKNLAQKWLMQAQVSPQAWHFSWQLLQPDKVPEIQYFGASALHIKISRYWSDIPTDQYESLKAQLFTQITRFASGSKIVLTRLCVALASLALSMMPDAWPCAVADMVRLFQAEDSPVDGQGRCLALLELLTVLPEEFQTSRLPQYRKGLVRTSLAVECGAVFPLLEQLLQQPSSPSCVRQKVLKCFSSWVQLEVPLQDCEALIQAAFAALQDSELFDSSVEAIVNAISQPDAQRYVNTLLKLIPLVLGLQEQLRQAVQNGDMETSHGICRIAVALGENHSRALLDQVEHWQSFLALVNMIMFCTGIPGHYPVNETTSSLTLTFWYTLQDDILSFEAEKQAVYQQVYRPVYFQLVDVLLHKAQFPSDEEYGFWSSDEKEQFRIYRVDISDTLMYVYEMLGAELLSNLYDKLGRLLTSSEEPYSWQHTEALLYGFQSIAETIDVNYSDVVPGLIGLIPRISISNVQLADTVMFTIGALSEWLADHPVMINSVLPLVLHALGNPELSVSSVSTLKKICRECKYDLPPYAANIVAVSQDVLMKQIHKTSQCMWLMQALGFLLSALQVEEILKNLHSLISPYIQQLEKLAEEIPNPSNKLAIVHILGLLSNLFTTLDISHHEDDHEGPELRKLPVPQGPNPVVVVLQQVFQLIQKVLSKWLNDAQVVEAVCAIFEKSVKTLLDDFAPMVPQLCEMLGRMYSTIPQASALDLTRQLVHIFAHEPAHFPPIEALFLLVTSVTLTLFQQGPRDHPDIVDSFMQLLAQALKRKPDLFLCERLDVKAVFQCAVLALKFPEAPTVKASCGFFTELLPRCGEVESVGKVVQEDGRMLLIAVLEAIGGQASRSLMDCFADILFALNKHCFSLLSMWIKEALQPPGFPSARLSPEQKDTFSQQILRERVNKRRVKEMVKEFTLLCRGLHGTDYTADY
UniProt P61604, whole entry: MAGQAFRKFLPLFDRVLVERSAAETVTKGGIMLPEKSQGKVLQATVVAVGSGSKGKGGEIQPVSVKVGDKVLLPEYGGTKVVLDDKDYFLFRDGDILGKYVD
UniProt P26440: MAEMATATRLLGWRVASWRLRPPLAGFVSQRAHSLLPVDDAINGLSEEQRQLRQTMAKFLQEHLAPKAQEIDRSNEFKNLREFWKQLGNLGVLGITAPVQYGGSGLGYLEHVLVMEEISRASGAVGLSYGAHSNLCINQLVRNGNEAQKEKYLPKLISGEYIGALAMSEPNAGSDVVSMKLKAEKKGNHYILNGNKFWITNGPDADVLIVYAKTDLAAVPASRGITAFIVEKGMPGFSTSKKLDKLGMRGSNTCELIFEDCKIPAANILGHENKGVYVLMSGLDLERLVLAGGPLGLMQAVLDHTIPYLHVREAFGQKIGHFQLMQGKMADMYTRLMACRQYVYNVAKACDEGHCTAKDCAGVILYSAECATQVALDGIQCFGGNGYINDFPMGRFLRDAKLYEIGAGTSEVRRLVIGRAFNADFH
UniProt Q9H0H3: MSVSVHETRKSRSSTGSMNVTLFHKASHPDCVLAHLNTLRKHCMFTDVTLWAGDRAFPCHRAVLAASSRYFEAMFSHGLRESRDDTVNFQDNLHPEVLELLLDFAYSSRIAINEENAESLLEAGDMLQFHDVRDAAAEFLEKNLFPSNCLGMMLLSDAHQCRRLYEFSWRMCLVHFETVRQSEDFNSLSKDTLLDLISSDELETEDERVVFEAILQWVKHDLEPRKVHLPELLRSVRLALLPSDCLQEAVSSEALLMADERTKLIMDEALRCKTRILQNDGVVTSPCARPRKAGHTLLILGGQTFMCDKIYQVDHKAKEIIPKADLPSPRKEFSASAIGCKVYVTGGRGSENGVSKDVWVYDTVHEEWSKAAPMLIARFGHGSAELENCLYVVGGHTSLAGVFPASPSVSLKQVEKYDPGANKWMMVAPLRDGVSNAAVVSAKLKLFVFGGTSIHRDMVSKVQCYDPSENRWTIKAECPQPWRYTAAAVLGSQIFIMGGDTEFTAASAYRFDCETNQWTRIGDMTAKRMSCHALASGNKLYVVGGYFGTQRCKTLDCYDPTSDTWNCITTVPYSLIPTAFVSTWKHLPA
UniProt Q9NVM9, whole entry: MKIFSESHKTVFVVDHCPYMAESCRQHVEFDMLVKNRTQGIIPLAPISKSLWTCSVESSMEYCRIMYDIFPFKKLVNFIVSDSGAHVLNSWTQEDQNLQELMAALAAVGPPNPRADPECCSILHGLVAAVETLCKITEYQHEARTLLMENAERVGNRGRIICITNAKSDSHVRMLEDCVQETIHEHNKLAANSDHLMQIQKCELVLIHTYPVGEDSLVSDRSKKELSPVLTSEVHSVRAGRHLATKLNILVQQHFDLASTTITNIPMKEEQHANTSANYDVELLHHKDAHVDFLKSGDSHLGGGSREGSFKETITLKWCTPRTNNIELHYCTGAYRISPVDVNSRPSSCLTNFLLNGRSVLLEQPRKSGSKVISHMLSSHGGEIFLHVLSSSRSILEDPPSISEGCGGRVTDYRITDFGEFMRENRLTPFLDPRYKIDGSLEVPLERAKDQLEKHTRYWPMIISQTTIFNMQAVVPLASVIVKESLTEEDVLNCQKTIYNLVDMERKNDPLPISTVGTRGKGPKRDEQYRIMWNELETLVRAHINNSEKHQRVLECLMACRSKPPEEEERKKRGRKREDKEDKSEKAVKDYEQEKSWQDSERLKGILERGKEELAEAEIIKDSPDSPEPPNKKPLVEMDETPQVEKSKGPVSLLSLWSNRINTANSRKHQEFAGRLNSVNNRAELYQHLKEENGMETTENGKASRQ
UniProt P17066, whole entry: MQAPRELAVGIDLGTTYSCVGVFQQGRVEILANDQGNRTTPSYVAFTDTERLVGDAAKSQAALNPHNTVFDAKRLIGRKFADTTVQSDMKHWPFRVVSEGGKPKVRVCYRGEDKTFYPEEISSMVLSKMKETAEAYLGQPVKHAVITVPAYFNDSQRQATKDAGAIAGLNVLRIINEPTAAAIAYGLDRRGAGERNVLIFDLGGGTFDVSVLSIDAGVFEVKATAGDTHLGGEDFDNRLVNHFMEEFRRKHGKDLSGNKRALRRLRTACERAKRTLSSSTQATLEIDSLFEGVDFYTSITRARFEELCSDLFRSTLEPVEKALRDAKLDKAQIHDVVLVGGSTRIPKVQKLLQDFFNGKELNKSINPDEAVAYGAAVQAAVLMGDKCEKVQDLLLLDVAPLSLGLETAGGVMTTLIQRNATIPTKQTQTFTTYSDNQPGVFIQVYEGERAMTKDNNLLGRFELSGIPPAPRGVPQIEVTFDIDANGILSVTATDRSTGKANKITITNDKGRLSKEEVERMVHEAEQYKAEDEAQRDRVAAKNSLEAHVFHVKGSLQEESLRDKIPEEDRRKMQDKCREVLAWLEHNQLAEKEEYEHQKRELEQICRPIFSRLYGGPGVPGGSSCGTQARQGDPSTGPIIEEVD
UniProt P18065: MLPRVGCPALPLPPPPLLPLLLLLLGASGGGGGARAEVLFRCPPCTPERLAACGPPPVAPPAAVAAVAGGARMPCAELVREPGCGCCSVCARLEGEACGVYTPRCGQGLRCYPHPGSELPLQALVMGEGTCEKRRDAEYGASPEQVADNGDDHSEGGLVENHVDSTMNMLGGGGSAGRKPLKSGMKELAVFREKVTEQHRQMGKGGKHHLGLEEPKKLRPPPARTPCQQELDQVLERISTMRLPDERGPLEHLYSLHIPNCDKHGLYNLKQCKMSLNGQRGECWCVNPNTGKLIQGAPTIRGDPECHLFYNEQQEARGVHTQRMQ

compound: Nc1nc2c(ncn2[C@@H]2O[C@H](COP(=O)(O)OP(=O)(O)OP(=O)(O)O)[C@@H](O)[C@H]2O)c(=O)[nH]1; test: dose-dependent thermal stabilisation call (2D-TPP, DLPTP, 10% FDR) (binary (1 = stabilised)); higher = stabilised by the compound; conditions: system: Jurkat gel-filtered lysate; concentration range 1-500 µM
Description: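 2D thermal proteome profiling in gel-filtered Jurkat E6.1 lysate (2 mg/ml) treated with NaGTP (0, 1, 10, 100, 500 uM) for 10 min at room temperature, then heated 3 min at one of 12 temperatures (42-63.9 C). Soluble protein was quantified by TMT10 MS. The value is the DLPTP call of the paper: dose-dependent thermal stabilisation over all temperatures at 10% FDR (F-test of a dose-response against a flat model); one experiment, one call per tested protein.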

Target	dose-dependent thermal stabilisation call
LEF1 (UniProt Q9UJU2)	active: 1
KLHL36 (UniProt Q8N4N3)	active: 1
KDM5C (UniProt P41229)	inactive: 0
IRF2 (UniProt P14316)	inactive: 0
LAGE3 (UniProt Q14657)	inactive: 0
INTS5 (UniProt Q6P9B9)	inactive: 0
JPT2 (UniProt Q9H910)	inactive: 0
KIAA1143 (UniProt Q96AT1)	inactive: 0
JUNB (UniProt P17275)	inactive: 0
ING3 (UniProt Q9NXR8)	inactive: 0
IFIT5 (UniProt Q13325)	inactive: 0
KARS (UniProt Q15046)	inactive: 0
LMO4 (UniProt P61968)	inactive: 0
IMPDH1 (UniProt P20839)	active: 1
IPO13 (UniProt O94829)	active: 1
HSPE1 (UniProt P61604)	inactive: 0
LGALS9 (UniProt O00182)	inactive: 0
IVD (UniProt P26440)	inactive: 0
KLHL25 (UniProt Q9H0H3)	active: 1
JPT1 (UniProt Q9UK76)	inactive: 0

Target	dose-dependent thermal stabilisation call
KMT2C (UniProt Q8NEZ4)	inactive: 0
LCP1 (UniProt P13796)	inactive: 0
KATNB1 (UniProt Q9BVA0)	inactive: 0
ITSN1 (UniProt Q15811)	inactive: 0
IKBKG (UniProt Q9Y6K9)	inactive: 0
HS1BP3 (UniProt Q53T59)	inactive: 0
IPO7 (UniProt O95373)	active: 1
ITFG2 (UniProt Q969R8)	inactive: 0
INTS13 (UniProt Q9NVM9)	active: 1
ICE1 (UniProt Q9Y2F5)	inactive: 0
KIAA0922 (UniProt A2VDJ0)	inactive: 0
LEO1 (UniProt Q8WVC0)	inactive: 0
HSPA6 (UniProt P17066)	inactive: 0
KATNA1 (UniProt O75449)	inactive: 0
IGFBP2 (UniProt P18065)	inactive: 0
KIF1BP (UniProt Q96EK5)	inactive: 0
KAT8 (UniProt Q9H7Z6)	inactive: 0
IKZF2 (UniProt Q9UKS7)	inactive: 0
LETM1 (UniProt O95202)	inactive: 0
LIMD2 (UniProt Q9BT23)	inactive: 0

Some of the entries above in another layout:

| Target | dose-dependent thermal stabilisation call |
| --- | --- |
| ITSN1 (UniProt Q15811) | inactive: 0 |
| IPO7 (UniProt O95373) | active: 1 |
